Laboratory results as given in article PMC3919609.

Experiments:
Test in all cases: binding assay
[1] = molecular target: RA three-finger array, finger 2 DSSNLRS E352N,T354R,R355A,R377D,D379S,H380N,T382R,T383S,D407A,E408N,R409L,K410V (synthetic construct (mouse Zif268 scaffold)) (UniProt P08046); conditions: Zn, 100 nM beta-estradiol; yeast GFP reporter, 12 h induction, 3 biological replicates; residues 333-418; letters built from the parent sequence and the stated change; variant of RA-CAC; counted as no binding; scale: mean GFP / mean GFP of Zif268 on its consensus site
[2] = molecular target: RA three-finger array, finger 2 HSSNLTH E352N,T354R,R355A,R377H,D379S,H380N,T383H,D407A,E408N,R409L,K410V (synthetic construct (mouse Zif268 scaffold)) (UniProt P08046); conditions: Zn, 100 nM beta-estradiol; yeast GFP reporter, 12 h induction, 3 biological replicates; residues 333-418; letters built from the parent sequence and the stated change; variant of RA-CAC; counted as no binding; scale: mean GFP / mean GFP of Zif268 on its consensus site
[3] = molecular target: RA three-finger array, finger 2 QSGNLTE E352N,T354R,R355A,R377Q,D379G,H380N,T383E,D407A,E408N,R409L,K410V (synthetic construct (mouse Zif268 scaffold)) (UniProt P08046); conditions: Zn, 100 nM beta-estradiol; yeast GFP reporter, 12 h induction, 3 biological replicates; residues 333-418; letters built from the parent sequence and the stated change; variant of RA-CAA; counted as no binding; scale: mean GFP / mean GFP of Zif268 on its consensus site
[4] = molecular target: RA three-finger array, finger 2 RADNLTE E352N,T354R,R355A,S378A,H380N,T383E,D407A,E408N,R409L,K410V (synthetic construct (mouse Zif268 scaffold)) (UniProt P08046); conditions: Zn, 100 nM beta-estradiol; yeast GFP reporter, 12 h induction, 3 biological replicates; residues 333-418; letters built from the parent sequence and the stated change; variant of RA-CAG; counted as no binding; scale: mean GFP / mean GFP of Zif268 on its consensus site
[5] = molecular target: RA three-finger array, finger 2 RSDNLTR E352N,T354R,R355A,H380N,T383R,D407A,E408N,R409L,K410V (synthetic construct (mouse Zif268 scaffold)) (UniProt P08046); conditions: Zn, 100 nM beta-estradiol; yeast GFP reporter, 12 h induction, 3 biological replicates; residues 333-418; letters built from the parent sequence and the stated change; variant of RA-GAG; counted as no binding; scale: mean GFP / mean GFP of Zif268 on its consensus site
[6] = molecular target: RA three-finger array, finger 2 SKKALTE E352N,T354R,R355A,R377S,S378K,D379K,H380A,T383E,D407A,E408N,R409L,K410V (synthetic construct (mouse Zif268 scaffold)) (UniProt P08046); conditions: Zn, 100 nM beta-estradiol; yeast GFP reporter, 12 h induction, 3 biological replicates; residues 333-418; letters built from the parent sequence and the stated change; variant of RA-CAC; counted as no binding; scale: mean GFP / mean GFP of Zif268 on its consensus site
[7] = molecular target: RA three-finger array, finger 2 TSGNLTE E352N,T354R,R355A,R377T,D379G,H380N,T383E,D407A,E408N,R409L,K410V (synthetic construct (mouse Zif268 scaffold)) (UniProt P08046); conditions: Zn, 100 nM beta-estradiol; yeast GFP reporter, 12 h induction, 3 biological replicates; residues 333-418; letters built from the parent sequence and the stated change; variant of RA-CAT; counted as no binding; scale: mean GFP / mean GFP of Zif268 on its consensus site
[8] = molecular target: RA three-finger array, finger 2 TSYNLTR E352N,T354R,R355A,R377T,D379Y,H380N,T383R,D407A,E408N,R409L,K410V (synthetic construct (mouse Zif268 scaffold)) (UniProt P08046); conditions: Zn, 100 nM beta-estradiol; yeast GFP reporter, 12 h induction, 3 biological replicates; residues 333-418; letters built from the parent sequence and the stated change; variant of RA-GAG; counted as no binding; scale: mean GFP / mean GFP of Zif268 on its consensus site
[9] = molecular target: Zif three-finger array, finger 2 QSGNLKS R377Q,D379G,H380N,T382K,T383S,D407A,E408N,R409L,K410V (synthetic construct (mouse Zif268 scaffold)) (UniProt P08046); conditions: Zn; E. coli B1H, 28-bp random library, 5 or 20 mM 3-AT, 37 C; residues 333-418; only the motif is given
[10] = molecular target: RA three-finger array, finger 2 RSDGLRM E352N,T354R,R355A,H380G,T382R,T383M,D407A,E408N,R409L,K410V (synthetic construct (mouse Zif268 scaffold)) (UniProt P08046); conditions: Zn; E. coli B1H, 28-bp random library, 5 or 20 mM 3-AT, 37 C; residues 333-418; only the motif is given
[11] = molecular target: RA three-finger array, finger 2 RSDNLRM E352N,T354R,R355A,H380N,T382R,T383M,D407A,E408N,R409L,K410V (synthetic construct (mouse Zif268 scaffold)) (UniProt P08046); conditions: Zn; E. coli B1H, 28-bp random library, 5 or 20 mM 3-AT, 37 C; residues 333-418; only the motif is given
[12] = molecular target: RA three-finger array, finger 2 RSDYLRM E352N,T354R,R355A,H380Y,T382R,T383M,D407A,E408N,R409L,K410V (synthetic construct (mouse Zif268 scaffold)) (UniProt P08046); conditions: Zn; E. coli B1H, 28-bp random library, 5 or 20 mM 3-AT, 37 C; residues 333-418; only the motif is given
[13] = molecular target: Zif three-finger array, finger 2 DSSNLRS R377D,D379S,H380N,T382R,T383S,D407A,E408N,R409L,K410V (synthetic construct (mouse Zif268 scaffold)) (UniProt P08046); conditions: Zn; E. coli B1H, 28-bp random library, 5 or 20 mM 3-AT, 37 C; residues 333-418; only the motif is given
[14] = molecular target: Zif three-finger array, finger 2 HSSNLTH R377H,D379S,H380N,T383H,D407A,E408N,R409L,K410V (synthetic construct (mouse Zif268 scaffold)) (UniProt P08046); conditions: Zn; E. coli B1H, 28-bp random library, 5 or 20 mM 3-AT, 37 C; residues 333-418; only the motif is given
[15] = molecular target: RA three-finger array, finger 2 ASSNLRA E352N,T354R,R355A,R377A,D379S,H380N,T382R,T383A,D407A,E408N,R409L,K410V (synthetic construct (mouse Zif268 scaffold)) (UniProt P08046); conditions: Zn, 100 nM beta-estradiol; yeast GFP reporter, 12 h induction, 3 biological replicates; residues 333-418; letters built from the parent sequence and the stated change; variant of RA-CAT; counted as no binding; scale: mean GFP / mean GFP of Zif268 on its consensus site
[16] = molecular target: RA three-finger array, finger 2 QSGNLKS E352N,T354R,R355A,R377Q,D379G,H380N,T382K,T383S,D407A,E408N,R409L,K410V (synthetic construct (mouse Zif268 scaffold)) (UniProt P08046); conditions: Zn, 100 nM beta-estradiol; yeast GFP reporter, 12 h induction, 3 biological replicates; residues 333-418; letters built from the parent sequence and the stated change; variant of RA-CAA; counted as no binding; scale: mean GFP / mean GFP of Zif268 on its consensus site
[17] = molecular target: RA three-finger array, finger 2 RSDNLRQ E352N,T354R,R355A,H380N,T382R,T383Q,D407A,E408N,R409L,K410V (synthetic construct (mouse Zif268 scaffold)) (UniProt P08046); conditions: Zn; E. coli B1H, 28-bp random library, 5 or 20 mM 3-AT, 37 C; residues 333-418; only the motif is given
[18] = molecular target: RA three-finger array, finger 2 RSDYLTN E352N,T354R,R355A,H380Y,T383N,D407A,E408N,R409L,K410V (synthetic construct (mouse Zif268 scaffold)) (UniProt P08046); conditions: Zn; E. coli B1H, 28-bp random library, 5 or 20 mM 3-AT, 37 C; residues 333-418; only the motif is given
[19] = molecular target: Zif three-finger array, finger 2 ASSNLRA R377A,D379S,H380N,T382R,T383A,D407A,E408N,R409L,K410V (synthetic construct (mouse Zif268 scaffold)) (UniProt P08046); conditions: Zn; E. coli B1H, 28-bp random library, 5 or 20 mM 3-AT, 37 C; residues 333-418; only the motif is given
[20] = molecular target: Zif three-finger array, finger 2 RSDNLRS H380N,T382R,T383S,D407A,E408N,R409L,K410V (synthetic construct (mouse Zif268 scaffold)) (UniProt P08046); conditions: Zn; E. coli B1H, 28-bp random library, 5 or 20 mM 3-AT, 37 C; residues 333-418; only the motif is given
[21] = molecular target: RA three-finger array, finger 2 TSWNLRS E352N,T354R,R355A,R377T,D379W,H380N,T382R,T383S,D407A,E408N,R409L,K410V (synthetic construct (mouse Zif268 scaffold)) (UniProt P08046); conditions: Zn, 100 nM beta-estradiol; yeast GFP reporter, 12 h induction, 3 biological replicates; residues 333-418; letters built from the parent sequence and the stated change; variant of RA-CAG; counted as no binding; scale: mean GFP / mean GFP of Zif268 on its consensus site
[22] = molecular target: RA three-finger array, finger 2 RSGNLRS E352N,T354R,R355A,D379G,H380N,T382R,T383S,D407A,E408N,R409L,K410V (synthetic construct (mouse Zif268 scaffold)) (UniProt P08046); conditions: Zn, 100 nM beta-estradiol; yeast GFP reporter, 12 h induction, 3 biological replicates; residues 333-418; letters built from the parent sequence and the stated change; variant of RA-CAG; counted as no binding; scale: mean GFP / mean GFP of Zif268 on its consensus site

GAGCATAAG (double strand) [RA-CAT]
binding signal [1]: 0.042
binding signal [2]: 0.05
binding signal [3]: 0.069
binding signal [4]: 0.052
binding signal [5]: 0.042
binding signal [6]: 0.05
binding signal [7]: 0.08
binding signal [8]: 0.053

GAGCAGAAG (double strand) [RA-CAG]
binding signal [1]: 0.048
binding signal [2]: 0.053
binding signal [3]: 0.071
binding signal [5]: 0.086
binding signal [6]: 0.053
binding signal [7]: 0.06

GAGCAAGCG (double strand) [Zif-CAA]
binding result [9]: binds

GAGTAGAAG (double strand) [RA-TAG]
binding result [10]: binds
binding result [11]: binds
binding result [12]: binds

GAGCACGCG (double strand) [Zif-CAC]
binding result [13]: binds
binding result [14]: no binding

GAGAAGAAG (double strand) [RA-AAG]
binding signal [15]: 0.074
binding signal [1]: 0.042
binding signal [2]: 0.045
binding signal [16]: 0.075
binding signal [3]: 0.053
binding signal [4]: 0.062
binding result [17]: binds
binding signal [5]: 0.057
binding result [18]: binds
binding signal [6]: 0.05
binding signal [7]: 0.05
binding signal [8]: 0.05

GAGGAGAAG (double strand) [RA-GAG]
binding signal [15]: 0.059
binding signal [1]: 0.05
binding signal [2]: 0.053
binding signal [16]: 0.049
binding signal [3]: 0.066
binding signal [4]: 0.064
binding signal [6]: 0.061
binding signal [7]: 0.058

GAGCATGCG (double strand) [Zif-CAT]
binding result [19]: no binding

GAGCAGGCG (double strand) [Zif-CAG]
binding result [20]: binds

GAGCAAAAG (double strand) [RA-CAA]
binding signal [15]: 0.067
binding signal [1]: 0.047
binding signal [2]: 0.054
binding signal [4]: 0.061
binding signal [5]: 0.065
binding signal [6]: 0.071
binding signal [7]: 0.082
binding signal [21]: 0.066
binding signal [8]: 0.07

GAGCACAAG (double strand) [RA-CAC]
binding signal [3]: 0.057
binding signal [4]: 0.047
binding signal [5]: 0.041
binding signal [22]: 0.084
binding signal [6]: 0.056
binding signal [7]: 0.051
binding signal [21]: 0.046
binding signal [8]: 0.047

For some assays here: A negative result means that nothing was seen under these conditions. For some assays here: Whether high values mean tight binding is not given here for every scale.
